Experimental findings from patent US20040131497A1, “PROCESS FOR STERILIZATION OF BIOLOGICAL COMPOSITIONS CONTAING PROTEIN” (priority 2002, published 2004) are described below.

In this data set the test system is Fibrinogen. The data set can be described thus: Protein aggregate formation by SEC after UVC irradiation of fibrinogen solution.
Where [1] appears, read: stabiliser 2 mmol/l, six passes.

On to `N[C@@H](Cc1c[nH]cn1)C(=O)O` [histidine, reference compound], for which the “new aggregates after treatment” value is recorded as 10% under setting [1] and 12% (stabiliser 5 mmol/l, six passes).

Regarding `OC[C@@H](O)[C@@H](O)[C@H](O)[C@H](O)CO` [mannitol, reference compound], the “new aggregates after treatment” value under setting [1] is reported as 7% and the “new aggregates after treatment” value (stabiliser 100 mmol/l, six passes) was 9%.

In the case of `COc1cc(C=O)ccc1O` [vanillin], the “new aggregates after treatment” value (stabiliser 0.01 mmol/l, eight passes) is 13%; the “new aggregates after treatment” value (stabiliser 0.05 mmol/l, eight passes) is 9%; the “new aggregates after treatment” value (stabiliser 0.1 mmol/l, eight passes) is recorded as 7%; the “new aggregates after treatment” value (stabiliser 3 mmol/l, eight passes) worked out at 1%; the “new aggregates after treatment” value (stabiliser 4 mmol/l, eight passes) came out at 1%. Also, the “new aggregates after treatment (% aggregate increase)” value was determined as 3% (stabiliser 0.5 mmol/l, eight passes); 2% (stabiliser 1 mmol/l, eight passes); 1% (stabiliser 2 mmol/l, eight passes).
